# Test results: the supplement of paper PMC12259267, “Disruption of the KLHL37–N-Myc complex restores N-Myc degradation and arrests neuroblastoma growth in mouse models” (The Journal of Clinical Investigation, 2025)
# Where “and” joins values, the source holds several entries; their conditions need not be identical. Equal values may be shown once. Where a name gives a salt, the structure may show the parent alone. The list shows a part of the results. Repeats are few or missing, and single values can be far off.
# Test system: SK-N-BE(2)
# Assay: inhibition of N-Myc immunofluorescence signal per cell relative to control (fraction); higher = stronger N-Myc protein reduction
# Details: 1 µM; 9 h
row,SMILES,inhibition of N-Myc immunofluorescence signal per cell
1,Cc1cc(C(=O)CN2CCCCC2)c(C)n1-c1ccc(Cl)cc1,0.0258
2,Cc1ncsc1-c1ccc(CNC(=O)[C@@H]2C[C@@H](O)CN2C(=O)[C@@H](NC(=O)OC(C)(C)C)C(C)(C)C)cc1,0.216
3,CCC(Sc1nnc2c(n1)[nH]c1ccccc12)C(=O)N1c2ccccc2Sc2ccccc21 (stereo unspecified) [Inauhzin],-0.0585
4,O=C1c2ccccc2C(=O)c2oc(-c3ccccc3)nc21,0.0588
5,N#Cc1c2ccc(N)cc2nc2cc(N)ccc12,0.152
6,Nc1cccc2c1CN(C1CCC(=O)NC1=O)C2=O (stereo unspecified) [Lenalidomide],0.208
7,Cc1cc2c(C(N)=O)cccc2n1-c1nc2c(c(NCc3ccccc3)n1)COCC2,0.152
8,N#Cc1ccc(-c2csc(NN=C3CCCC3)n2)cc1 [Remodelin (hydrobromide)],0.0298
9,O=C(Nc1cccc(Br)c1)c1cccc(S(=O)(=O)N2CCCCCC2)c1,0.161
10,O=C(O)C(S)=Cc1c[nH]c2ccc(F)cc12,0.077
11,Nc1ccccc1NC(=O)c1ccc(CNC(=O)OCc2cccnc2)cc1 [Entinostat],0.035
12,Cc1[nH]c2ccccc2c1CCNCc1ccc(/C=C/C(=O)NO)cc1 [Panobinostat],0.146
13,CC[C@@H]1/C=C(\C)C[C@H](C)C[C@H](OC)[C@H]2O[C@@](O)(C(=O)C(=O)N3CCCC[C@H]3C(=O)O[C@H](/C(C)=C/[C@@H]3CC[C@@H](O)[C@H](OC)C3)[C@H](C)[C@@H](O)CC1=O)[C@H](C)C[C@@H]2OC [Ascomycin],-0.01
14,O=C(Nc1ccc2c(O)cc(S(=O)(=O)O)cc2c1)Nc1ccc2c(O)cc(S(=O)(=O)O)cc2c1,-0.146
15,C=C1C(=O)O[C@@H]2/C=C(\C)CC/C=C(\C)CC[C@@H]12 [Costunolide],0.135
16,O=c1c(-n2ccnn2)c[nH]n1-c1cc(N2CCOCC2)ncn1 [Molidustat],0.0447
17,CC(=O)N1CCC(Nc2cc(C(=O)NC[C@H](O)CN3CCc4ccccc4C3)ncn2)CC1,-0.0194
18,CN(C)CCCNC(=O)c1ccc(-c2cc(O)c3ncccc3c2)cc1,-0.263

# A different layout for some results above.
row | SMILES | inhibition of N-Myc immunofluorescence signal per cell
2 | Cc1ncsc1-c1ccc(CNC(=O)[C@@H]2C[C@@H](O)CN2C(=O)[C@@H](NC(=O)OC(C)(C)C)C(C)(C)C)cc1 | 0.216
9 | O=C(Nc1cccc(Br)c1)c1cccc(S(=O)(=O)N2CCCCCC2)c1 | 0.161

# The results go on.

row,SMILES,inhibition of N-Myc immunofluorescence signal per cell
1,Cc1cc([C@H](C(=O)N2C[C@H](O)C[C@H]2C(=O)N[C@@H](CC(=O)O)c2ccccc2)C(C)C)on1 [VHL Ligand 8],0.186
2,CCCc1cc(C)[nH]c(=O)c1CNC(=O)c1cc(-c2ccc(N3CCN(C)CC3)nc2)nc2c1cnn2C(C)C,-0.375
3,COC(=O)c1ccc2c(c1)nc(NC(=O)c1ccccc1)n2CCCc1ccccc1,-0.112
4,Cn1cncc1[C@](O)(COc1ccc(C#N)cc1-c1ccc(OC(F)(F)F)cc1)c1ccc(C#N)cc1,0.125
5,CCc1c(-c2ccc3[nH]ncc3c2)cnc(N)c1-c1ccc(O)cc1,0.141
6,C[C@]1(c2nc3c(C(N)=O)cccc3[nH]2)CCCN1 [Veliparib],0.0869
7,O=C1CCC(N2Cc3c(Br)cccc3C2=O)C(=O)N1 (stereo unspecified) [Lenalidomide-Br],0.0485
8,CC(C)(C)C[C@@H]1N[C@@H](C(=O)N[C@H]2CC[C@H](O)CC2)[C@H](c2cccc(Cl)c2F)[C@]12C(=O)Nc1cc(Cl)ccc12,0.108 and 0.116
9,O=C(NCCc1nccs1)c1cnc2c(SSc3cccc4cc(C(=O)NCCc5nccs5)cnc34)cccc2c1 [Capzimin],-0.00964
10,COc1cc(N(C)C)cc(CN(C)CCc2ccc([N+](=O)[O-])cc2)c1O,-0.109
11,CC(C)=CC[C@@H](O)C1=CC(=O)c2c(O)ccc(O)c2C1=O [Shikonin],0.131
12,Cc1nn2c([nH]c(=O)c3cccnc32)c1C#N,-0.0463
13,O=C1NN(c2ccc(F)c(Cl)c2)C(=O)/C1=C\c1ccc([N+](=O)[O-])o1,0.324
14,O=C(O)c1c[nH]c2c(ccc3cccnc32)c1=O,0.152
15,COc1cccc2c(NCc3ccccc3)nc(-n3c(N)nc4ccccc43)nc12,0.153
16,CC1(N)CCN(c2cnc(-c3cccc(Cl)c3Cl)c(N)n2)CC1 [SHP099 (hydrochloride)],0.0544
17,O=C(NN=Cc1c(O)ccc2ccccc12)c1ccncc1,-0.256
18,CCc1c(-c2ccc(C(=O)NC)nc2)cnc(N)c1-c1ccc(O)cc1,0.163
